Data taken from PubChem BioAssay (EPA / NIEHS).
This list was built around the results that the source calls inconclusive (neither active nor inactive); the mix of calls is not that of the screen. Potencies of inconclusive entries are doubtful fits and often do not repeat. Active and inactive are the calls of the source. The calls were made as follows: active = hit-call score of the fitted dose curve at least 0.9, where 1 is the maximum; inconclusive = response in the unintended direction; inactive = score below 0.9.

read-out: HMG-CoA synthase (HMGCS2), HMGCS2 (gene 3158); test: CLD_HMGCS2_48hr: CellzDirect (CLD) Gene Expression Assay for HMG-CoA synthase (HMGCS2) at 48 hours (AID 2283711)
How it was run: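 Primary human hepatocytes from two donors dosed daily for two days, 0.2% DMSO vehicle. HMGCS2 mRNA measured 48 h after dosing by quantitative nuclease protection assay with chemiluminescent read-out; induction fitted relative to DMSO, cytotoxicity flagged by microscopy.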

Row | Compound | AC50 | outcome
1 | CN(C)C(=S)SSC(=S)N(C)C | inconclusive: 14.7 µM | 
2 | [2H]C1([2H])[n+]2ccccc2-c2cccc[n+]2C1([2H])[2H] | inconclusive: 20 µM | 
3 | O=C(Nc1ccccc1-c1ccc(Cl)cc1)c1cccnc1Cl | inconclusive: 37.8 µM | 
4 | CNC(=O)ON=C(SC)C(=O)N(C)C |  | inactive
5 | C=CCOC(=O)C(C)(C)OC(=O)c1cc(-n2c(=O)cc(C(F)(F)F)n(C)c2=O)ccc1Cl | inconclusive: 20 µM | 
6 | CC1(C)C(C(=O)OC(C#N)c2cccc(Oc3ccccc3)c2)C1(C)C (stereo not given) |  | inactive
7 | CCOc1nc(NC)nc(NC(=O)NS(=O)(=O)c2ccccc2C(=O)OC)n1 | inconclusive: 0.0402 µM | 
8 | CCCN(CCOc1c(Cl)cc(Cl)cc1Cl)C(=O)n1ccnc1 | inconclusive: 10.9 µM | 
9 | CCSC(=O)N1CCCCCC1 | inconclusive: 1.89 µM | 
10 | Cc1ccc(-c2c(Cl)nc(C#N)n2S(=O)(=O)N(C)C)cc1 | inconclusive: 20 µM | 
11 | CCc1nn(C)c(C(=O)NCc2ccc(C(C)(C)C)cc2)c1Cl | inconclusive: 1.89 µM | 
12 | CCCN(CCC)c1c([N+](=O)[O-])cc(C(F)(F)F)cc1[N+](=O)[O-] | inconclusive: 38.3 µM | 
13 | CNC(=O)N(C)c1nnc(C(C)(C)C)s1 |  | inactive
14 | O=[N+]([O-])c1cc(C(F)(F)F)c(Cl)c([N+](=O)[O-])c1Nc1ncc(C(F)(F)F)cc1Cl | inconclusive: 2 µM | 
15 | Cn1c(-c2ccccc2)cc(-c2ccccc2)[n+]1C | inconclusive: 37.6 µM | 
16 | CNC(=O)Oc1cccc2c1OC(C)(C)O2 | inconclusive: 20 µM | 
17 | CCc1ccc(C(=O)NN(C(=O)c2cc(C)cc(C)c2)C(C)(C)C)cc1 | inconclusive: 7.39 µM | 
18 | CCOP(=S)(Oc1cnc(C(C)(C)C)nc1)OC(C)C (stereo not given) | inconclusive: 3.97 µM | 
19 | CC(C)(C)C(O)/C(=C\c1ccc(Cl)cc1Cl)n1cncn1 (stereo not given) | inconclusive: 15.1 µM | 
20 | CCSC(=O)N(CC)C1CCCCC1 | inconclusive: 38 µM | 

A different layout for part of the listing above.

| Row | Compound | AC50 | outcome |
| --- | --- | --- | --- |
| 1 | CN(C)C(=S)SSC(=S)N(C)C | inconclusive: 14.7 µM |  |
| 2 | [2H]C1([2H])[n+]2ccccc2-c2cccc[n+]2C1([2H])[2H] | inconclusive: 20 µM |  |
